Data source: PubChem BioAssay AID652259 (Drosophila RNAi Screening Center, 2013)

- Screen: 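Identify new Wingless signalling regulators in fly cells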 (primary screen)
- Cells: Drosophila clone 8 imaginal disc epithelial cells
- Knock-down reagent: long dsRNA against Drosophila genes
- Treatment: pathway stimulated by co-transfected Wingless expression plasmid
- Measured: 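Dual luciferase reads per well after Wingless plasmid stimulation: reporter firefly light and Renilla control light; activity is firefly divided by Renilla, a ratio not deposited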
- Reading the numbers: firefly reporter light: higher = more Wg reporter light, before normalisation; Renilla control light: higher = more transfected or surviving cells
- Active means: 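a knock-down is a candidate when at least two out of four statistical tests show it departing from its plate mean; one test alone signals a weak candidate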
- Meaning of the calls: active = candidate regulator (raises or lowers reporter); inactive = not a candidate
In all, the deposit lists about 22,000 reagents; below is a random part of those with a known target gene and a result. Of all reagents, 233 (1.1%) got an active call. 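Light values are raw, unnormalised plate reads; the ratio scores behind the reporter calls were not deposited.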 A number with no mark means an inactive call. Not stated in the record: the amount of reagent, the time to read-out, the dose of the treatment.

target gene | PubChem SID | reporter change call, replicate 1 | firefly reporter light, replicate 1 | firefly reporter light, replicate 2 | Renilla control light, replicate 1 | Renilla control light, replicate 2
ms(3)76Ba (GeneID 40109) | SID104189883 | – | 9015 | – | 3101 | –
CR11235 (GeneID 10178883) | SID104200272 | – | 17163 | – | 1000 | –
CG2113 (GeneID 38356) | SID104188346 | – | 5893 | – | 2521 | –
CG7335 (GeneID 40203) | SID104190608 | – | 17260 | – | 4659 | –
CG13155 (GeneID 36346) | SID104186072 | – | 6264 | – | 2531 | –
CG3631 (GeneID 41797) | SID104195295 | – | 8867 | – | 3993 | –
CG6071 (GeneID 39308) | SID104190371 | – | 5788 | – | 2070 | –
slam (GeneID 33890) | SID104183032 | – | 2443 | 5593 | 230 | 2116
RNaseZ (GeneID 36086) | SID104186637 | – | 3226 | 5264 | 808 | 2186
mRpL4 (GeneID 49425) | SID104183354 | – | 6117 | – | 1680 | –
CG14511 (GeneID 43445) | SID104194655 | – | 7120 | – | 2000 | –
Sur-8 (GeneID 42093) | SID104195586 | – | 11708 | – | 3383 | –
CG5854 (GeneID 42831) | SID104195686 | – | 4679 | – | 1836 | –
Trm7-32 (GeneID 42056) | SID104195533 | – | 3271 | 8016 | 1462 | 2769
CG42741 (GeneID 37654) | SID104184385 | – | 3621 | 10274 | 1116 | 3945
CG42741 (GeneID 37654) | SID104201626 | – | 9.66e5 | 1.03e6 | 5.38e5 | 5.12e5
Kr (GeneID 38012) | SID104184414 | – | 1548 | 7264 | 512 | 3632
emp (GeneID 37999) | SID104183811 | – | 16387 | – | 7312 | –
emp (GeneID 37999) | SID104184475 | – | 12233 | – | 4276 | –
Ufd4 (GeneID 34378) | SID104182663 | – | 1885 | 6800 | 696 | 3296
ATPsynGL (GeneID 34054) | SID104182819 | – | 2976 | 8352 | 1211 | 4147
Lmx1a (GeneID 39406) | SID104189518 | – | 4852 | – | 1824 | –
Lmx1a (GeneID 39406) | SID104190067 | Wg reporter activity raised (active) | 5906 | – | 457 | –
dgt5 (GeneID 36364) | SID104187072 | – | 5649 | – | 2032 | –
CR42546 (GeneID 8674079) | SID104183503 | – | 3364 | 8520 | 818 | 3360
CG7857 (GeneID 39671) | SID104190717 | – | 5898 | – | 2428 | –
miple2 (GeneID 44787) | SID104188515 | – | 5804 | – | 2320 | –
Swip-1 (GeneID 35158) | SID104181875 | – | 12049 | – | 1533 | –
Swip-1 (GeneID 35158) | SID104181876 | – | 2685 | 11298 | 738 | 3850
CG7840 (GeneID 34136) | SID104182867 | – | 13669 | – | 6507 | –
p53 (GeneID 2768677) | SID104196816 | – | 3788 | 6439 | 1484 | 1780
yellow-g2 (GeneID 38295) | SID104188130 | Wg reporter activity lowered | 4455 | – | 2403 | –
CecC (GeneID 43599) | SID104196398 | – | 6578 | – | 2938 | –
CoRest (GeneID 32941) | SID104199673 | – | 3286 | 5796 | 1548 | 1885
CoRest (GeneID 32941) | SID104201321 | – | 6.63e5 | 6.65e5 | 3.49e5 | 2.54e5
CoRest (GeneID 32941) | SID104201814 | – | 2.86e5 | 2.83e5 | 1.26e5 | 1.34e5
PpN58A (GeneID 37493) | SID104184434 | – | 8992 | – | 3345 | –
CG1824 (GeneID 32208) | SID104199588 | – | 17904 | – | 8308 | –
TH1 (GeneID 32607) | SID104200081 | – | 1904 | 8892 | 841 | 1800
CG9114 (GeneID 32460) | SID104199947 | – | 23536 | – | 10981 | –
Polr1H (GeneID 42563) | SID104194386 | – | 4777 | 7301 | 976 | 2272
CG13287 (GeneID 38660) | SID104189753 | – | 2598 | – | 969 | –
CG12096 (GeneID 32269) | SID104201372 | – | 4.48e5 | 4.98e5 | 1.85e5 | 1.93e5
Dic4 (GeneID 40039) | SID104190109 | – | 6760 | – | 2340 | –
CR43359 (GeneID 12798534) | SID104183536 | – | 32912 | – | 8886 | –
Tsp42Ei (GeneID 35618) | SID104185981 | – | 3257 | 7305 | 837 | 2723
Rpn6 (GeneID 36638) | SID104187333 | – | 8469 | – | 2186 | –
pico (GeneID 33003) | SID104199222 | – | 16599 | – | 8332 | –
CG13829 (GeneID 42740) | SID104194471 | – | 8756 | – | 10290 | –
CG5516 (GeneID 41940) | SID104195618 | – | 19661 | – | 4569 | –
CG5516 (GeneID 41940) | SID104201422 | – | 6.26e5 | 6.06e5 | 1.84e5 | 1.78e5
CG32845 (GeneID 318243) | SID104187659 | – | 3488 | – | 1360 | –
akirin (GeneID 38821) | SID104190792 | Wg reporter activity lowered (active) | 2568 | – | 2618 | –
CG13047 (GeneID 39790) | SID104189720 | – | 12436 | – | 4438 | –
CG32679 (GeneID 318150) | SID104197436 | – | 3159 | – | 986 | –
Gpdh1 (GeneID 33824) | SID104183128 | – | 10432 | 5.51e5 | 5153 | 2.31e5
Gpdh1 (GeneID 33824) | SID104201351 | – | 5.86e5 | 6.25e5 | 3.18e5 | 2.93e5
ap (GeneID 35509) | SID104184709 | – | 8937 | – | 2219 | –
Damm (GeneID 36266) | SID104187185 | – | 8224 | – | 2713 | –
CG12853 (GeneID 50220) | SID104185985 | – | 10498 | 7.96e5 | 4235 | 4.15e5
cwo (GeneID 44669) | SID104196864 | – | 11393 | – | 2256 | –
Jhe (GeneID 36780) | SID104186966 | – | 2136 | – | 1643 | –
CG32681 (GeneID 318151) | SID104197438 | – | 3512 | – | 1558 | –
CG34310 (GeneID 5740536) | SID104180735 | – | 19544 | – | 11405 | –
CG7627 (GeneID 34148) | SID104182857 | – | 9651 | – | 3975 | –
ACXE (GeneID 53426) | SID104180639 | – | 2305 | 7593 | 842 | 3024
CG12935 (GeneID 36134) | SID104186040 | – | 10560 | – | 3104 | –
CG11145 (GeneID 35663) | SID104185841 | – | 3811 | 9529 | 1059 | 1936
CG13116 (GeneID 34288) | SID104182006 | – | 4045 | 11132 | 1547 | 4995
CG13116 (GeneID 34288) | SID104201560 | – | 2.35e5 | 3.54e5 | 1.24e5 | 1.70e5
GluRIIE (GeneID 318623) | SID104193223 | – | 2215 | – | 1059 | –
CG15369 (GeneID 31862) | SID104197833 | – | 16193 | – | 7243 | –
Klp68D (GeneID 39332) | SID104190998 | – | 2961 | – | 1096 | –
CG17048 (GeneID 36479) | SID104186441 | Wg reporter activity lowered (active) | 5962 | – | 4599 | –
Yod1 (GeneID 38603) | SID104190225 | – | 11780 | – | 4168 | –
CG10465 (GeneID 35488) | SID104184640 | – | 2093 | 3346 | 557 | 1739
Art7 (GeneID 37664) | SID104184380 | – | 1904 | 8182 | 711 | 2725
Fife (GeneID 38337) | SID104188054 | – | 13692 | – | 4145 | –
Fife (GeneID 38337) | SID104188201 | – | 5706 | – | 2170 | –
Fife (GeneID 38337) | SID104188291 | – | 5874 | – | 2429 | –
CG2993 (GeneID 40924) | SID104194076 | – | 14681 | – | 3824 | –
CG2993 (GeneID 40924) | SID104195249 | – | 12584 | – | 1376 | –
SelT (GeneID 33725) | SID104182524 | – | 8869 | – | 3098 | –
bgcn (GeneID 47873) | SID104183854 | – | 1911 | 7075 | 696 | 2582
bgcn (GeneID 47873) | SID104183855 | – | 2368 | 7329 | 645 | 2077
CG16868 (GeneID 37298) | SID104186425 | – | 8896 | – | 2692 | –
ver (GeneID 39432) | SID104189917 | – | 8528 | – | 3196 | –
CG16926 (GeneID 50205) | SID104186429 | – | 14748 | – | 4145 | –
en (GeneID 36240) | SID104187401 | – | 6903 | – | 2464 | –
CG9733 (GeneID 43601) | SID104196341 | – | 7367 | – | 3197 | –
CG7512 (GeneID 39289) | SID104190655 | – | 4680 | – | 3648 | –
Son (GeneID 41159) | SID104196192 | – | 9073 | – | 2131 | –
CG11656 (GeneID 41600) | SID104194130 | – | 8096 | – | 2395 | –

9 entries from above, showing only “Renilla control light, replicate 1”:
CG12096 (GeneID 32269) [SID104201372]: 1.85e5
Dic4 (GeneID 40039) [SID104190109]: 2340
CR43359 (GeneID 12798534) [SID104183536]: 8886
Tsp42Ei (GeneID 35618) [SID104185981]: 837
Rpn6 (GeneID 36638) [SID104187333]: 2186
pico (GeneID 33003) [SID104199222]: 8332
CG13829 (GeneID 42740) [SID104194471]: 10290
CG5516 (GeneID 41940) [SID104195618]: 4569
CG5516 (GeneID 41940) [SID104201422]: 1.84e5
